Tested on: TERA-2 cells
Assay: Confocal fluorescence microscopy of treated TERA-2 cells
Format: cell-based
Conditions: 7 days
Experimental: Even at the lowest treatment concentration, the fluorescence of compound 9 is visible, with 0.1-10 μM treatments easily imaged.
FIGS. 21, 22 and 23 respectively show SHSY5Y cells (neuroblastoma) and fibroblast cells and TERA-2 cells treated with 10 μM compound 9, and imaged using a confocal fluorescence microscope after 8 hours (SHSY5Y) and 24 hours (fibroblasts) and 7 days (TERA-2).

With CC(C)N1CCC(C)(C)c2cc(C#Cc3ccc(C(=O)O)cc3)ccc21 [compound 9, 4-2-[4,4-Dimethyl-1-(propan-2-yl)-1,2,3,4-tetrahydroquinolin-6-yl]ethynylbenzoic acid] the “fluorescence visibility and localisation” value (TERA-2 cells, 10 μM) was “clearly visible with obvious localisation around the nuclear envelope”, the “fluorescence of compound in cells” value (TERA-2 cells, 0.1-10 μM treatments) was “easily imaged” and the cellular localisation (TERA-2 cells, 10, 1, 0.1, 0.01 μM) was “mainly localised around the nuclear envelope”. For the same compound, the “fluorescence of compound in cells” value (TERA-2 cells, lowest treatment concentration (0.01 μM)) was “visible”.

Reference: patent publication US10759762B2, “Fluorescent synthetic retinoids” (High Force Research Limited, priority 2014, dated 2020)
